We go through six molecules from publication PMC8396726.

The chains behind the UniProt entries cited, without tags or fusion partners.
UniProt Q8IB67: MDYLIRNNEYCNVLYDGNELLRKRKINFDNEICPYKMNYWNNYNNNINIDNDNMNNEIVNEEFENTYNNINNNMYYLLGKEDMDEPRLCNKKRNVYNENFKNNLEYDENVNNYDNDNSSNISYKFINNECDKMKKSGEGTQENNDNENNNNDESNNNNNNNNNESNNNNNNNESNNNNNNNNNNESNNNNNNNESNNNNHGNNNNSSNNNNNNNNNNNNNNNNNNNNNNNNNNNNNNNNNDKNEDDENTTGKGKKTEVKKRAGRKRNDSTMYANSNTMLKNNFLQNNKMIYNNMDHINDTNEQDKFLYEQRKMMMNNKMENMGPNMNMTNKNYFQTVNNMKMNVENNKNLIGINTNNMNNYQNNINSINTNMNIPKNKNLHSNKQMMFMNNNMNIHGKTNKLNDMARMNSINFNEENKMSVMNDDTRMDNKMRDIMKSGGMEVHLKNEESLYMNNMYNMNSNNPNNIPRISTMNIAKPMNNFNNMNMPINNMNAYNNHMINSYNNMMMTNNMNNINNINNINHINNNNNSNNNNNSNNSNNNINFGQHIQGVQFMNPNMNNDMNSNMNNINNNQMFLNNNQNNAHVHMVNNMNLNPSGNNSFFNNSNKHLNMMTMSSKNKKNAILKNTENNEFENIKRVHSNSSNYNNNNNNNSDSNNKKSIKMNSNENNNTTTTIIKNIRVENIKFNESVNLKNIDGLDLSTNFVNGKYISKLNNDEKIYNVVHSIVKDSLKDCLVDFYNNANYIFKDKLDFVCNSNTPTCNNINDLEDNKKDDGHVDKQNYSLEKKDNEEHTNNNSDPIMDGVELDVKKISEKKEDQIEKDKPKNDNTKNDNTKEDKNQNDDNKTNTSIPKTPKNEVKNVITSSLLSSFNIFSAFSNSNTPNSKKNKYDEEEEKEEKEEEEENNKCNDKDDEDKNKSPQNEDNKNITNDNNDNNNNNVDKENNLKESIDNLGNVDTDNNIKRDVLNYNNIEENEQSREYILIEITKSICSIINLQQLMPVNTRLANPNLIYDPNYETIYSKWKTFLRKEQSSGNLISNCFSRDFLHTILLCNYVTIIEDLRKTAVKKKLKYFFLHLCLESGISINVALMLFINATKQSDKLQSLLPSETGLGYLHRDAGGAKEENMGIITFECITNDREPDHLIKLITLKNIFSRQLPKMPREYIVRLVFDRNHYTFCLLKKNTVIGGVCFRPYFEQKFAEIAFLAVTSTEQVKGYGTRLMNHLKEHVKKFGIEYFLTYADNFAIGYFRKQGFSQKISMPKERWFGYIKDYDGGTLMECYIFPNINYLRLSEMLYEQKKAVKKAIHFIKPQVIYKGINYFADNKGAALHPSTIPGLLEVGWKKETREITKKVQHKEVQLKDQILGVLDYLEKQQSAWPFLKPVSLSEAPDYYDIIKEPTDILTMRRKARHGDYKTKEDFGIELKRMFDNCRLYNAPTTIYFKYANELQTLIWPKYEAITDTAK
UniProt Q8IJW2: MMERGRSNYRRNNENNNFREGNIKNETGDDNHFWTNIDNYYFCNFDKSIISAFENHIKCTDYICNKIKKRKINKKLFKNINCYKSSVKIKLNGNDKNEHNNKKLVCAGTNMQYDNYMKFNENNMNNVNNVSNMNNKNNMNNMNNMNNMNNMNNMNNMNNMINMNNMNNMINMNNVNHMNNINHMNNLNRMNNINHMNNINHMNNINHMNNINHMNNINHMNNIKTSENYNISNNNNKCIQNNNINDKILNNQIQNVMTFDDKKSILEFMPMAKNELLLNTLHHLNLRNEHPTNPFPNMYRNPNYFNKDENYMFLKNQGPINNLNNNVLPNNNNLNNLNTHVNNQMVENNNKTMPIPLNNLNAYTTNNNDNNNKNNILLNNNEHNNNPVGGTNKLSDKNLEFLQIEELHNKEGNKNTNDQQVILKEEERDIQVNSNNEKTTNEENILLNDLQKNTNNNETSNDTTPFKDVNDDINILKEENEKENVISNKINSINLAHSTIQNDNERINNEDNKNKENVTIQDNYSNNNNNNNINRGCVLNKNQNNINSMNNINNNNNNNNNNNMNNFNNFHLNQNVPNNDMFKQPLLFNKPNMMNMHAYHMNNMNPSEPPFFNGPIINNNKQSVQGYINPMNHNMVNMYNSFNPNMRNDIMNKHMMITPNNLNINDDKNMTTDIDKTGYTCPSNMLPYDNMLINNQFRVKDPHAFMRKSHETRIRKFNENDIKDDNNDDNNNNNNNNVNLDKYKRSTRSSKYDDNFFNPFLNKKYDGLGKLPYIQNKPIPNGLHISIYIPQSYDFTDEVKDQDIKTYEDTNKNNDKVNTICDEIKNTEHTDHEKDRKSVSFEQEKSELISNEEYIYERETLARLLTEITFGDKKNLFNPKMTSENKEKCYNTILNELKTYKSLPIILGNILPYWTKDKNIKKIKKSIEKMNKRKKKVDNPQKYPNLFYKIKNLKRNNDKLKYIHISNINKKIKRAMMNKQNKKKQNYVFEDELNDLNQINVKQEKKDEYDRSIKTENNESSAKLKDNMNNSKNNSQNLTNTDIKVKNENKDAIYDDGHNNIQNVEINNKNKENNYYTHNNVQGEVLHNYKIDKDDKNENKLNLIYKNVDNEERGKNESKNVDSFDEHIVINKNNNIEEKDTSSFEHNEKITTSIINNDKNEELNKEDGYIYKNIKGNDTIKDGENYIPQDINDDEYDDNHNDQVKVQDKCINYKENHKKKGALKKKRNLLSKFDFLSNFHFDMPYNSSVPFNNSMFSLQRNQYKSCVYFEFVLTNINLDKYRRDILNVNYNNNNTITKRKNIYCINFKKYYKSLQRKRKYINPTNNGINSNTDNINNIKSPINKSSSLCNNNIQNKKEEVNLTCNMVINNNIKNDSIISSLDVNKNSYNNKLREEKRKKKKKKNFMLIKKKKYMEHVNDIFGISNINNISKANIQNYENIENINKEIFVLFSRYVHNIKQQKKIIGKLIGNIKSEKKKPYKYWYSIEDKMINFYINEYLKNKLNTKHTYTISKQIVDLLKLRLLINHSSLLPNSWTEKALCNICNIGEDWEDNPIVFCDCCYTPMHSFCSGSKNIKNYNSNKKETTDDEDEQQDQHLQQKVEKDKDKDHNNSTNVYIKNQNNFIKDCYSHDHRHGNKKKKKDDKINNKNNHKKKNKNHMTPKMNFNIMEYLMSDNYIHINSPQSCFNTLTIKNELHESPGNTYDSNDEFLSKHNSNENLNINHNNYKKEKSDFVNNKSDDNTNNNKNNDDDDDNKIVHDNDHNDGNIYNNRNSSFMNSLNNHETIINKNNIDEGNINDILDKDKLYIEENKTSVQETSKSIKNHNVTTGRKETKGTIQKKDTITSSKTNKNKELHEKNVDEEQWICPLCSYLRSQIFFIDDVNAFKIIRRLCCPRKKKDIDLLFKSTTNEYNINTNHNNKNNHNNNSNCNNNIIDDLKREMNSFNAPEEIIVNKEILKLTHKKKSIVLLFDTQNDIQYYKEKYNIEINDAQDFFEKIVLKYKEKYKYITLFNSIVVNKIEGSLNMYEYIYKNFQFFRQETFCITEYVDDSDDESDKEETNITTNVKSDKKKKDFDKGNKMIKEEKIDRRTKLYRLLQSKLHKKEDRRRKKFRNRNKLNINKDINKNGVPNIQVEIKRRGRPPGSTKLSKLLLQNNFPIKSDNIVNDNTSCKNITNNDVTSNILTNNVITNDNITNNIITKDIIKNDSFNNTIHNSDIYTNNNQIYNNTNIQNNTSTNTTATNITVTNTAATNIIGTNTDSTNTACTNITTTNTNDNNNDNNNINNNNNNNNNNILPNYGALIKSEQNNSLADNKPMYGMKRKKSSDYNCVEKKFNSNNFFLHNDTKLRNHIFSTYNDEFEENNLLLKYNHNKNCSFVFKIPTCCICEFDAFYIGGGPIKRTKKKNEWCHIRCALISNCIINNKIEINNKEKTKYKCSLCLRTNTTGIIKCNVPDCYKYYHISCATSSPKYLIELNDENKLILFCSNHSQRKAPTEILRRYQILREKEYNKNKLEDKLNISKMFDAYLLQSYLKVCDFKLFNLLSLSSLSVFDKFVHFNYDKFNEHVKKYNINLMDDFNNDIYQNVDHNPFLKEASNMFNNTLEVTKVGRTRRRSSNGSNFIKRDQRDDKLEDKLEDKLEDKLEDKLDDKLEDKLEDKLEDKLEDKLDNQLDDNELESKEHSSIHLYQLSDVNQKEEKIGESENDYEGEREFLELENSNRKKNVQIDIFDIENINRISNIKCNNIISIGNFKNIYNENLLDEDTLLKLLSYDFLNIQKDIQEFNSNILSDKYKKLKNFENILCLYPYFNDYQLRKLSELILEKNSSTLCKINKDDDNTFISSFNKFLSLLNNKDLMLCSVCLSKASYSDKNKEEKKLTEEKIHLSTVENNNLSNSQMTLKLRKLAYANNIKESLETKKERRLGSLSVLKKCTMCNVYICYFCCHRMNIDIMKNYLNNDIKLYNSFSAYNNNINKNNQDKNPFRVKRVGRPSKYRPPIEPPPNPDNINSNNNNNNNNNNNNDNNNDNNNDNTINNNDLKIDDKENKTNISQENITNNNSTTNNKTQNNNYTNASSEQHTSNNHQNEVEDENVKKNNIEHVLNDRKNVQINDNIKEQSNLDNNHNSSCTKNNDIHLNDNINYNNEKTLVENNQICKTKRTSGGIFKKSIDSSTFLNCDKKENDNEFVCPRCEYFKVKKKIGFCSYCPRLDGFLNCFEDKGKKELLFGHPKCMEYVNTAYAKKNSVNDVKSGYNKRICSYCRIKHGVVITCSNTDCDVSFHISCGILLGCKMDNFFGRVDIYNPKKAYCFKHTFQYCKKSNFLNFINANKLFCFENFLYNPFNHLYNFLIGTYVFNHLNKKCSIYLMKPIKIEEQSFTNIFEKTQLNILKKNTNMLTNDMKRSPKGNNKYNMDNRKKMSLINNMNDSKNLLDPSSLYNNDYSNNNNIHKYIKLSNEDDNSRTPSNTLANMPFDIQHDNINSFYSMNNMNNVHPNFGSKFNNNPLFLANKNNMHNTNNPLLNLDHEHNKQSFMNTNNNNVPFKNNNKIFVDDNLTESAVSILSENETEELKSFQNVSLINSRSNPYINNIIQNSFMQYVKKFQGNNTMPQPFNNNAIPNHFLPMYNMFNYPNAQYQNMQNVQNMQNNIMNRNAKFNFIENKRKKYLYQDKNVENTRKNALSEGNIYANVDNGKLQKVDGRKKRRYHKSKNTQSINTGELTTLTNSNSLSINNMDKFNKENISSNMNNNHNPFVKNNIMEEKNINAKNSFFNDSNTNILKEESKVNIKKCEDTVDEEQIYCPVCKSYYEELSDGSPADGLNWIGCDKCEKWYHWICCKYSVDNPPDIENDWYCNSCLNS

Read-outs that look alike come from different tables or passages of the source. No constants are given. Whether binding was seen depends on the method and setting. In cells and extracts the contact can be indirect. A yes stands for co-enrichment or nearness to the bait. Other partners may have been found. For some assays here: No binding means not detected with the bait. For some assays here: Where a sequence is shown, tags or fusion partners need not be part of it.

Assay [1] concerns the target PfGCN5::PTP (P. falciparum 3D7) (UniProt Q8IB67). As to the kind of experiment: affinity purification with mass spectrometry; tandem affinity purification (IgG agarose, release with TEV protease, anti-protein C beads, elution with EGTA/EDTA) from nuclear extracts of 10^9 synchronized trophozoites of the PfGCN5::PTP line; 150 mM KCl, 20 mM Tris-HCl pH 7.7, 3 mM MgCl2, 0.1% Tween 20, 4°C; LC-MS/MS; SAINT probability >94%, FDR <1%; three replicates; WT 3D7 as control.

In assay [2] the target is PfGCN5::GFP (P. falciparum) (UniProt Q8IB67). The assay is described as follows: affinity purification with mass spectrometry; IP with GFP-Trap from trophozoite nuclear extracts of the PfGCN5::GFP, GCN5-ΔBrD::GFP and PHD1-ΔPHD::GFP lines; LC-MS/MS; SAINT probability >94%, FDR <1%.
For assay [3] the target is unchanged. As to the kind of experiment: affinity purification with mass spectrometry; single-step IP with GFP-trap beads from PfGCN5::GFP parasites at the ring stage; LC-MS/MS; two replicates; SAINT probability >94%, 1% FDR.
The target in assay [4] is T1, PF3D7_1019700::GFP (P. falciparum 3D7) (UniProt Q8IJK5).
T1 sequence: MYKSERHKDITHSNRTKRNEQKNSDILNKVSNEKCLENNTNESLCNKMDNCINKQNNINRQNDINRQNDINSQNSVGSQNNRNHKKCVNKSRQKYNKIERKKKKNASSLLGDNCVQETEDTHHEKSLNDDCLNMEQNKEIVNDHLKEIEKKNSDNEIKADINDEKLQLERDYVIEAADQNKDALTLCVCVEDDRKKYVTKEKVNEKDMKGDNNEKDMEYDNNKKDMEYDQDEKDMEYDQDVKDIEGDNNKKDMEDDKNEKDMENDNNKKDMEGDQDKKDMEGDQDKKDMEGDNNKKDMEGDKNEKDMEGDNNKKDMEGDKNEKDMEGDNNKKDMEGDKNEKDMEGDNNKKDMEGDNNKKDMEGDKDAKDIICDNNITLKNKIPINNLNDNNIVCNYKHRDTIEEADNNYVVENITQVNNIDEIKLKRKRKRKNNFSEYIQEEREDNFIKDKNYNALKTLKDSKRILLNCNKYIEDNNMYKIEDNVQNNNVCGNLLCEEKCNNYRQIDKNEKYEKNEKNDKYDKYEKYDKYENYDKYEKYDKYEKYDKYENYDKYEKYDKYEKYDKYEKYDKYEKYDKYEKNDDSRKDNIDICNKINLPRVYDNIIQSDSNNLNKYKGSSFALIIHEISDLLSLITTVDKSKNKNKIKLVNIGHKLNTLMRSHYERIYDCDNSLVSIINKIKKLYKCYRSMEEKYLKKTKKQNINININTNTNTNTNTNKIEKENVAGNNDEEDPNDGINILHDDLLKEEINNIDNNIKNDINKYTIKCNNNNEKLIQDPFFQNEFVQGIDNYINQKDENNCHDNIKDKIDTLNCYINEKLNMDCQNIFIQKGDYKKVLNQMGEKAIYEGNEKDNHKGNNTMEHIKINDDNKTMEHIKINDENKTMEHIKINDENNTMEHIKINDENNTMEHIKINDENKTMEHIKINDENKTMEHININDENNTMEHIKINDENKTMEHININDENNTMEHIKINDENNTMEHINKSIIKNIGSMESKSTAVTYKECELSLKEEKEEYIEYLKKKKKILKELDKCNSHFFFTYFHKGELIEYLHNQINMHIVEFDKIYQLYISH
As to the kind of experiment: affinity purification with mass spectrometry; single-step IP with anti-GFP (GFP-trap) beads from nuclear extracts of PF3D7_1019700::GFP parasites; LC-MS/MS; two replicates; SAINT probability >94%, 1% FDR; WT 3D7 as control.

The target of assay [5] is PfPHD1::Myc (P. falciparum 3D7) (UniProt Q8IJW2). As to the kind of experiment: affinity purification with mass spectrometry; single-step pulldown with Myc-trap beads from trophozoite nuclear extracts of PfPHD1::Myc parasites; LC-MS/MS; SAINT probability >94%, 1% FDR; WT 3D7 as control.
Assay [6] has as its target PfGCN5-ΔBrD::GFP (P. falciparum 3D7). As to the kind of experiment: affinity purification with mass spectrometry; IP with GFP-Trap from trophozoite nuclear extracts of the PfGCN5::GFP, GCN5-ΔBrD::GFP and PHD1-ΔPHD::GFP lines; LC-MS/MS; SAINT probability >94%, FDR <1%.
Assay [7] has as its target PfPHD1-ΔPHD::GFP (P. falciparum 3D7). Described as above.
Assay [8] has as its target T1, PF3D7_1019700::GFP (P. falciparum 3D7). As to the kind of experiment: affinity purification with mass spectrometry; single-step IP with anti-GFP (GFP-trap) beads from nuclear extracts of PF3D7_1019700::GFP parasites; LC-MS/MS; two replicates; SAINT probability >94%, 1% FDR; WT 3D7 as control. This is another data set of the same source.

In the case of PfPHD1 (from UniProt Q8IJW2 1-3853), the binding result in assay [1], in assay [2], in assay [3] and in assay [4] was “binds” each time.
As for PfPHD2 (from UniProt Q8ILC9 1-5757), the binding result in assay [5], in assay [1], in assay [2], in assay [3] and in assay [4] was “binds” in each case.

B1: PF3D7_1019700 (protein, UniProt Q8IJK5 1-1074)
chain: MYKSERHKDITHSNRTKRNEQKNSDILNKVSNEKCLENNTNESLCNKMDNCINKQNNINRQNDINRQNDINSQNSVGSQNNRNHKKCVNKSRQKYNKIERKKKKNASSLLGDNCVQETEDTHHEKSLNDDCLNMEQNKEIVNDHLKEIEKKNSDNEIKADINDEKLQLERDYVIEAADQNKDALTLCVCVEDDRKKYVTKEKVNEKDMKGDNNEKDMEYDNNKKDMEYDQDEKDMEYDQDVKDIEGDNNKKDMEDDKNEKDMENDNNKKDMEGDQDKKDMEGDQDKKDMEGDNNKKDMEGDKNEKDMEGDNNKKDMEGDKNEKDMEGDNNKKDMEGDKNEKDMEGDNNKKDMEGDNNKKDMEGDKDAKDIICDNNITLKNKIPINNLNDNNIVCNYKHRDTIEEADNNYVVENITQVNNIDEIKLKRKRKRKNNFSEYIQEEREDNFIKDKNYNALKTLKDSKRILLNCNKYIEDNNMYKIEDNVQNNNVCGNLLCEEKCNNYRQIDKNEKYEKNEKNDKYDKYEKYDKYENYDKYEKYDKYEKYDKYENYDKYEKYDKYEKYDKYEKYDKYEKYDKYEKNDDSRKDNIDICNKINLPRVYDNIIQSDSNNLNKYKGSSFALIIHEISDLLSLITTVDKSKNKNKIKLVNIGHKLNTLMRSHYERIYDCDNSLVSIINKIKKLYKCYRSMEEKYLKKTKKQNINININTNTNTNTNTNKIEKENVAGNNDEEDPNDGINILHDDLLKEEINNIDNNIKNDINKYTIKCNNNNEKLIQDPFFQNEFVQGIDNYINQKDENNCHDNIKDKIDTLNCYINEKLNMDCQNIFIQKGDYKKVLNQMGEKAIYEGNEKDNHKGNNTMEHIKINDDNKTMEHIKINDENKTMEHIKINDENNTMEHIKINDENNTMEHIKINDENKTMEHIKINDENKTMEHININDENNTMEHIKINDENKTMEHININDENNTMEHIKINDENNTMEHINKSIIKNIGSMESKSTAVTYKECELSLKEEKEEYIEYLKKKKKILKELDKCNSHFFFTYFHKGELIEYLHNQINMHIVEFDKIYQLYISH
Regarding B1, the binding result in assay [5], in assay [1], in assay [2] and in assay [3] was “binds” in each case.

B2: PfNAPS (protein, UniProt Q8I2W3 1-269)
chain: MKRDRSENSVENTDPKHTKIENDDPLMPFMQDFEDIQKDIEQLDIKCAHEQMNIQKQYDEKKKPLFEKRDEIIQKIPGFWANTLRKHPALSDIVPEDIDILNHLVKLDLKDNMDNNGSYKITFIFGEKAKEFMEPLTLVKHVTFDNNQEKVVECTRIKWKEGKNPIAAVTHNRSDLDNEIPKWSIFEWFTTDELQDKPDVGELIRREIWHNPLSYYLGLEEFDEFDDDFDEEFDDDDDDDDDDDDDDDDDDKDDDLDGDDDGNNDDNDD
For the molecule B2, the binding entry was “binds” in assay [5]; “binds” in assay [1]; “binds” in assay [2]; “binds” in assay [6]; “no binding” in assay [7]; “binds” in assay [3].

B3: heterochromatin protein 1 (HP1) (protein, UniProt Q8I5K4 1-266)
chain: MTGSDEEFEIGDILEIKKKKNGFIYLVKWKGYSDDENTWEPESNLIHLTTFKKKMESLKTNFLSKANETNGDGKILKNHILAPTQEDDSIKSKGRSSLAPRRKMSRKSLTNKLENKKNLSLSDNSLKKSDEEDNESVKHENHVNDGNLLNVEDVYSVRIKNKKLEFLASLKNESPQWVEETNIRRTGHLNIKVNDFKRYVRRKKSSRGNRIVIKNLHNVGDELYISVIHNINNKEIHSLYPSKVIEYIYPQELLNFLLSRLRYRTA
With B3, the binding result in assay [5] and in assay [8] was “binds” throughout.

B4: bromodomain protein 1 (BDP1) (protein, UniProt Q8IJ72 1-488)
chain: MMLEDFNTLPLIKSIREDSLDDVLKFLENNYKDYEVNENGEAKKTIELVDKQTQATPLFYVTARKSDEESVEISKLIIEKYAICNPISKDLMKQTCLFYAAREGHLNLCNYLIEKGCNPNDQDNFGQTCLFYASREGKTDCVLTLIKKGANPNLLDLNKQTCLFYACRDGRYDTVKCLLENGVNPSIKDAQRRTALTFAKGNGHNNIINLLKNVGTLSRSSIDSNAQLGNITMLRRNSSSYIAASSPNESNLNNLTVQAENVSNVNLKTEDNQLRKKYKLQYKPLSDEDPLLWVDAPLIKIKEFERKFPELALWPRNVSQSNVEVNNANDAFNKQWYLLANQLILSLSKYEGGHIFEKLVDAKKQNCPDYYDVIKNPMSFSCIKTKLKKGQYAYPSEFVKDVQLIFDNCSLYNTSNSVVAITGKNIETYFNNQLIVMGYNNFILKEKKINDMLKLVEEENIKWSKEKEDQIEEIDELENNQEDSSKKD
Regarding B4, the binding entry in assay [5] is “binds”; in assay [8], “binds”; in assay [2] it was “binds”; in assay [6], “no binding”; in assay [7], “no binding”.
